According to PubChem BioAssay AID1487 (National Center for Advancing Translational Sciences (NCATS), 2009):
The list shows a part of the results. These are further read-outs of the screen, such as a control signal, another cell line or another target. No call is given for them. Compounds called inactive in the main read-out are mostly missing here. Potencies come from curve fits of mixed quality, noted in brackets.

Assay: qHTS Assay for Modulators of Lamin A Splicing
Conditions: HeLa LMNA splicing GFP/RFP minigene ratio, 48 h
Summary of the method: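 Read-out is the ratio of GFP to DsRed2 object intensity, acquired by 488 nm laser-scanning cytometry on HeLa lamin A-EGFP minigene reporter cells. Compound incubation 48 hrs at 37 °C in Opti-MEM with 2% FBS; DMSO 0.5% final.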

[1] = measured here: GFP splicing reporter channel
[2] = measured here: RFP viability control channel

SMILES	AC50 [1]	AC50 [2]
O=C(c1ccccc1Sc1ccc([N+](=O)[O-])cc1Cl)N1CCOCC1	6.31 µM [falling, partial curve, poor fit]	0.00316 µM [falling, full curve, poor fit]
O=c1cc(C(F)(F)F)[nH]c2c(C(F)(F)F)cccc12	2.82 µM [rising, partial curve]	11.2 µM [rising, partial curve]
Nc1nc(SCC(=O)NCc2ccccc2)n[nH]1	5.62 µM [falling, single point]	5.62 µM [falling, partial curve, poor fit]
O=C1C2=C(CCCC2)C(=O)N1CNc1ccccc1	–	0.0708 µM [falling, full curve, poor fit]
Cc1nnc(SCCC(=O)Nc2nc(-c3ccccc3)ns2)s1	–	20 µM [rising, single point]
CC(=O)Nc1ccc2nc(NC(=O)c3ccc([N+](=O)[O-])s3)sc2c1	–	14.1 µM [falling, partial curve]
Cc1ccc(-c2nc(SCC(=O)N3CCc4ccccc43)c3c(=O)n(C)c(=O)n(C)c3n2)cc1	–	8.91 µM [falling, partial curve]
CCOC(=O)C1CCC(CN(Cc2c(Cl)cccc2Cl)S(=O)(=O)c2ccc(Cl)cc2)CC1 (stereo not drawn)	–	20 µM [rising, single point]
CCOC(=O)Cc1csc(NC(=O)c2cc(=O)c3ccccc3o2)n1	0.0398 µM [rising, full curve, poor fit]	0.0891 µM [rising, full curve, poor fit]
COc1c(S(=O)(=O)n2nc(C)cc2C)ccc(Cl)c1Cl	–	28.2 µM [rising, single point]
CCOC(=O)c1sc(-c2ccccc2)cc1NC(=O)c1ccc(S(=O)(=O)N(CCOC)CCOC)cc1	0.631 µM [falling, full curve, poor fit]	0.447 µM [falling, full curve, poor fit]
O=C1N=C(N2CCCCC2)S/C1=C/C1=Cc2ccccc2OC1	–	0.562 µM [falling, full curve, poor fit]
CC(C(=O)OCc1nnc(-c2ccccc2)o1)N1C(=O)c2ccccc2C1=O (stereo not drawn)	–	0.158 µM [falling, full curve, poor fit]
Cc1ccc(COC(=O)c2nn(C)c(=O)c3ccccc23)cc1	–	5.01 µM [rising, partial curve, poor fit]
CCC(C)Oc1ccccc1C1CC(=O)NC2=C1C(=O)CCC2 (stereo not drawn)	35.5 µM [falling, single point]	22.4 µM [falling, single point]
COc1ccc(-n2c(=O)c(CCc3ccccc3)nc3cnc(OC)nc32)cc1	11.2 µM [falling, partial curve, poor fit]	–
Nc1ncn(C2C[C@H](O)[C@@H](CO)O2)c(=O)n1 (stereo partly drawn)	0.562 µM [falling, partial curve, poor fit]	–
O=C(Cn1c(-c2cccs2)cc2cc(F)ccc21)NCCCN1CCN(c2ccccc2F)CC1	–	14.1 µM [rising, partial curve]
CC(C)c1ccc(CNC(=O)C(=O)NCCCn2ccnc2)cc1	–	1.41 µM [falling, full curve, poor fit]
CCc1ccc2[nH]c(=O)c(CN(CCCN3CCOCC3)C(=O)Nc3cccc(Cl)c3)cc2c1	–	12.6 µM [rising, single point]
O=C(CSc1nc2c(cnn2-c2ccc(F)cc2)c(=O)[nH]1)N1CCCCCC1	–	0.251 µM [falling, full curve, poor fit]
COc1ccc(C(CNC(=O)c2cccc([N+](=O)[O-])c2)N2CCOCC2)cc1 (stereo not drawn)	0.282 µM [rising, full curve, poor fit]	–
OC(CNC1CCCc2ccccc21)COc1c(Cl)cccc1Cl (stereo not drawn)	–	15.8 µM [rising, single point]
O=C(Nc1cccc(-c2nc3ccccc3s2)c1)c1cccs1	31.6 µM [rising, single point]	35.5 µM [rising, single point]
Cc1cc(C)c2c(N)c(C(=O)NC3CCCC3)sc2n1	3.98 µM [rising, partial curve]	5.62 µM [rising, partial curve]
CCCCN(CC)C(=O)c1ccccc1Oc1ccccc1	3.16 µM [rising, partial curve, poor fit]	12.6 µM [rising, partial curve]
COc1ccccc1S(=O)(=O)Cc1ccc(C(=O)N2CCN(c3cccc(Cl)c3)CC2)o1	–	15.8 µM [rising, partial curve]
CCCc1cc(=O)[nH]c(Nc2ccc(Cl)cc2)n1	12.6 µM [rising, partial curve]	14.1 µM [rising, partial curve, poor fit]

Taken from above.
AC50 [2], `COc1c(S(=O)(=O)n2nc(C)cc2C)ccc(Cl)c1Cl` reads 28.2 µM [rising, single point]
AC50 [2], `CCc1ccc2[nH]c(=O)c(CN(CCCN3CCOCC3)C(=O)Nc3cccc(Cl)c3)cc2c1` reads 12.6 µM [rising, single point]
